Experimental data as given in article PMC4893818, “Folliculin directs the formation of a Rab34–RILP complex to control the nutrient‐dependent dynamic distribution of lysosomes” (EMBO Reports, 2016).
Results are given in words; binding and its absence hold for the method and conditions named. For part of these data: Binding seen in cells or lysates may run through a third protein. Some binding calls cover weakened binding; strength is not graded here. For part of these data: Sequences can lack the tags named with a protein. Values belong to the molecule of their own block, whether it stands above or below them.

Protein sequences, listed by entry. Tags and fused reporters are not part of them. Residues count along the entry.
UniProt Q6PHN9, residues 1-199: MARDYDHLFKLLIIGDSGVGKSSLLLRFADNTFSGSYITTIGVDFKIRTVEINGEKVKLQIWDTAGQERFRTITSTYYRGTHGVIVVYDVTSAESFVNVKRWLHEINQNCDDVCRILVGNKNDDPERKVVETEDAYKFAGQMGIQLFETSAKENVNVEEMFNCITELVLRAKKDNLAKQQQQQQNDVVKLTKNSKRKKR

Key:
[1] = molecular target: T1, GFP-Rab34 (mouse) (UniProt Q64008); experiment: co-IP; GFP-Trap beads, lysate of HeLa cells transfected with GFP-Rab34 and HA-Rab7 with or without HA-RILP; 25 mM HEPES pH 7.5, 150 mM NaCl, 2 mM MgCl2, 0.5% NP-40, 0.5% Triton X-100; blots for GFP and HA
T1 sequence: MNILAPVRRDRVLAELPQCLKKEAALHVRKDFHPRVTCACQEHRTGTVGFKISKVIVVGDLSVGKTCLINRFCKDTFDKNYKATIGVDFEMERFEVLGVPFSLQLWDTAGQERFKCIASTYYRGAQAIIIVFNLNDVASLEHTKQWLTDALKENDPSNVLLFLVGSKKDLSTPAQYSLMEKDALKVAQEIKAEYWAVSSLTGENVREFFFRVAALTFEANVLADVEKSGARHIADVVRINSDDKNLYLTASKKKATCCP

[2] = molecular target: GST-RILP Rab binding domain (aa 241-321) (human) (UniProt Q96NA2); experiment: pull-down; GST-RILP fragments or GST alone on beads, extracts of UOK257-FLCN (full length) and UOK257-FLCNΔDENN cells; Western blot; only the target purified
[3] = molecular target: GST-RILP C-terminal domain (322 to C) (human) (UniProt Q96NA2); experiment: as above
[4] = molecular target: GST-RILP N-terminal coiled coil region (aa N-240) (human) (UniProt Q96NA2); experiment: as above
[5] = molecular target: T2, Rab34-dsRED-Mito (WT) (mouse) (UniProt Q64008); experiment: recruitment to mitochondria by a mitochondrially targeted partner (confocal microscopy); HeLa cells co-transfected with Rab-dsRED-Mito and FLCN-GFP or its variants, with or without HA-FNIP2; fixed cells, confocal immunofluorescence
T2 sequence: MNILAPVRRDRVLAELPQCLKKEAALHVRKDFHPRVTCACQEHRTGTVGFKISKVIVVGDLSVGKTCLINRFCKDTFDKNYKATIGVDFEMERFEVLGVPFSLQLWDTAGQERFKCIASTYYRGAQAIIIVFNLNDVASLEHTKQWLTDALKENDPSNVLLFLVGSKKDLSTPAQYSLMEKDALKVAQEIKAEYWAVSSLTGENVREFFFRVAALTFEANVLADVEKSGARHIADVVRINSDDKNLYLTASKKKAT

[6] = molecular target: Rab35-dsRED-Mito (mouse) (UniProt Q6PHN9); experiment: as above
[7] = molecular target: T3, Rab34 (Q111L)-dsRED-Mito (mouse) (UniProt Q64008); experiment: as above
T3 sequence: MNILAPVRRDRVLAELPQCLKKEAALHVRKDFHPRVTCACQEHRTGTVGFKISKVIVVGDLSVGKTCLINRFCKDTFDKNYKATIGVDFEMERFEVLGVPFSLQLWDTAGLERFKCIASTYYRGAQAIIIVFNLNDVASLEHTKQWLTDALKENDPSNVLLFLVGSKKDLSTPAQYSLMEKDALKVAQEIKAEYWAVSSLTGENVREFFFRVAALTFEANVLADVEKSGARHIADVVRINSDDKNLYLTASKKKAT

[8] = molecular target: T4, GST-RILP (full ORF) (human, UniProt Q96NA2 1-401); experiment: pull-down; larger scale: 0.5 nmol GST-RILP on glutathione beads, 2 x 15 cm dishes of HeLa lysed in 1 ml lysis buffer; Western blot; only the target purified
T4 construct: also called GST-RILP resin; source: E. coli BL21(DE3), purified (glutathione beads, eluted with glutathione, dialysed); not shown: GST, N-terminal, kept
T4 sequence (looked up): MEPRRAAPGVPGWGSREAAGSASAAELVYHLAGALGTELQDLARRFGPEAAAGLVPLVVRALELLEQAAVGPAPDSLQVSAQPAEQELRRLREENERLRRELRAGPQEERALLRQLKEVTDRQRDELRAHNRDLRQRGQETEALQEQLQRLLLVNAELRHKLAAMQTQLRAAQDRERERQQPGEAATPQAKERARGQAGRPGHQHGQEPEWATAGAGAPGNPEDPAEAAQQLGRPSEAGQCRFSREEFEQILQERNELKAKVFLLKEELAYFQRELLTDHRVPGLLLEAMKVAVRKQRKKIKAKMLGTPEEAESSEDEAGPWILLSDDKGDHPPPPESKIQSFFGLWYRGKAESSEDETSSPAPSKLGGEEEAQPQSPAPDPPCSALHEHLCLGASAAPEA

[9] = molecular target: T4, GST-RILP (full ORF); experiment: pull-down; 0.1 nmol GST-RILP prebound to glutathione beads, extracts of UOK257, UOK257-2, UOK257-FLCN and UOK257-FLCNΔDENN cells; Western blot for endogenous Rab34 and Rab7; only the target purified

binding [1]: binds
Molecule: HA-RILP (from UniProt Q96NA2 1-401)

binding [2]: no binding | binding [3]: no binding | binding [4]: no binding
B1: hsFLCNΔDENN (aa1-343), untagged (UOK257-FLCNΔDENN cells) (domain or fragment, UniProt Q8NFG4 1-343)
chain: MNAIVALCHFCELHGPRTLFCTEVLHAPLPQGDGNEDSPGQGEQAEEEEGGIQMNSRMRAHSPAEGASVESSSPGPKKSDMCEGCRSLAAGHPGYISHDKETSIKYVSHQHPSHPQLFSIVRQACVRSLSCEVCPGREGPIFFGDEQHGFVFSHTFFIKDSLARGFQRWYSIITIMMDRIYLINSWPFLLGKVRGIIDELQGKALKVFEAEQFGCPQRAQRMNTAFTPFLHQRNGNAARSLTSLTSDDNLWACLHTSFAWLLKACGSRLTEKLLEGAPTEDTLVQMEKLADLEEESESWDNSEAEEEEKAPVLPESTEGRELTQGPAESSSLSGCGSWQPRKL

binding [5]: binds
B2: FLCN(344-C)-GFP (DENN only) (domain or fragment, UniProt Q8QZS3 344-579)
chain: TGFKSLRHMRQVLGAPSFRMLAWHVLMGNQVIWKSRDVNLVHSAFEVLRTMLPVGCVRIIPYSSQYEEAYRCNFLGLSPPVPIPAHVLASEFVVVVEVHTATRSNLHPAGCEDDQSLSKYEFVVTSGSPVAADRVGPTILNKIEAALTNQNLSVDVVDQCLICLKEEWMNKVKVLFKFTKVDSRPKEDTQKLLSVLGASEEDNVKLLKFWMTGLSKTYKSHLMSTVRSPTATESRS

binding [5]: no binding
B3: FLCN(N-343)-GFP (ΔDENN) (domain or fragment, UniProt Q8QZS3 1-343)
chain: MNAIVALCHFCELHGPRTLFCTEVLHAPLPQGAGSGDSPDQVEQAEEEEGGIQMSSRVRAHSPAEGASSESSSPGPKKSDMCEGCRSLAVGHPGYISHDKETSIKYVSHQHPNHPQLFSIVRQACVRSLSCEVCPGREGPIFFGDEQHGFVFSHTFFIKDSLARGFQRWYSIIAIMMDRIYLINSWPFLLGRIRGIISELQAKAFKVFEAEQFGCPQRAQRMNTAFTPFLHQRNGNAARSLTSLTSDDNLWACLHTSFAWLLKACGSRLTEKLLEGAPTEDTLVQMEKLADLEEESESWDNSEAEEEEKAPVTPEGAEGRELTSCPTESSFLSACGSWQPPKL

binding [5]: no binding
B4: HA-FNIP2 (protein, UniProt Q9P278 1-1114)
chain: MAPTLLQKLFNKRGSSGSSAAASAQGRAPKEGPAFSWSCSEFDLNEIRLIVYQDCDRRGRQVLFDSKAVQKIEEVTAQKTEDVPIKISAKCCQGSSSVSSSSSSSISSHSSSGGSSHHAKEQLPKYQYTRPASDVNMLGEMMFGSVAMSYKGSTLKIHYIRSPPQLMISKVFSARMGSFCGSTNNLQDSFEYINQDPNLGKLNTNQNSLGPCRTGSNLAHSTPVDMPSRGQNEDRDSGIARSASLSSLLITPFPSPSSSTSSSSSYQRRWLRSQTTSLENGIIPRRSTDETFSLAEETCSSNPAMVRRKKIAISIIFSLCEKEEAQRNFQDFFFSHFPLFESHMNRLKSAIEKAMISCRKIAESSLRVQFYVSRLMEALGEFRGTIWNLYSVPRIAEPVWLTMMSGTLEKNQLCQRFLKEFTLLIEQINKNQFFAALLTAVLTYHLAWVPTVMPVDHPPIKAFSEKRTSQSVNMLAKTHPYNPLWAQLGDLYGAIGSPVRLTRTVVVGKQKDLVQRILYVLTYFLRCSELQENQLTWSGNHGEGDQVLNGSKIITALEKGEVEESEYVVITVRNEPALVPPILPPTAAERHNPWPTGFPECPEGTDSRDLGLKPDKEANRRPEQGSEACSAGCLGPASDASWKPQNAFCGDEKNKEAPQDGSSRLPSCEVLGAGMKMDQQAVCELLKVEMPTRLPDRSVAWPCPDRHLREKPSLEKVTFQIGSFASPESDFESRMKKMEERVKACGPSLEASEAADVAQDPQVSRSPFKPGFQENVCCPQNRLSEGDEGESDKGFAEDRGSRNDMAADIAGQLSHAADLGTASHGAGGTGGRRLEATRGLYVKAAEGPVLEPVAPRCVQRGPGLVAGANIPCGDDNKKANFRTEGDIPRNESSDSALGDSDDEACASAMLDLGHGGDRTGGSLEVELPLPRSQSISTQNVRNFGRSLLAGYCPTYMPDLVLHGTGSDEKLKQCLVADLVHTVHHPVLDEPIAEAVCIIADTDKWSVQVATSQRKVTDNMKLGQDVLVSSQVSSLLQSILQLYKLHLPADFCIMHLEDRLQEMYLKSKMLSEYLRGHTRVHVKELGVVLGIESNDLPLLTAIASTHSPYVAQILL

binding [6]: no binding | binding [5]: binds | binding [7]: binds
B5: FLCN-GFP (full-length mouse FLCN) (protein, UniProt Q8QZS3 1-579)
chain: MNAIVALCHFCELHGPRTLFCTEVLHAPLPQGAGSGDSPDQVEQAEEEEGGIQMSSRVRAHSPAEGASSESSSPGPKKSDMCEGCRSLAVGHPGYISHDKETSIKYVSHQHPNHPQLFSIVRQACVRSLSCEVCPGREGPIFFGDEQHGFVFSHTFFIKDSLARGFQRWYSIIAIMMDRIYLINSWPFLLGRIRGIISELQAKAFKVFEAEQFGCPQRAQRMNTAFTPFLHQRNGNAARSLTSLTSDDNLWACLHTSFAWLLKACGSRLTEKLLEGAPTEDTLVQMEKLADLEEESESWDNSEAEEEEKAPVTPEGAEGRELTSCPTESSFLSACGSWQPPKLTGFKSLRHMRQVLGAPSFRMLAWHVLMGNQVIWKSRDVNLVHSAFEVLRTMLPVGCVRIIPYSSQYEEAYRCNFLGLSPPVPIPAHVLASEFVVVVEVHTATRSNLHPAGCEDDQSLSKYEFVVTSGSPVAADRVGPTILNKIEAALTNQNLSVDVVDQCLICLKEEWMNKVKVLFKFTKVDSRPKEDTQKLLSVLGASEEDNVKLLKFWMTGLSKTYKSHLMSTVRSPTATESRS

binding [8]: binds | binding [9]: binds
B6: endogenous Rab34 (natural protein, UniProt Q9BZG1 1-259, looked up)
chain: MNILAPVRRDRVLAELPQCLRKEAALHGHKDFHPRVTCACQEHRTGTVGFKISKVIVVGDLSVGKTCLINRFCKDTFDKNYKATIGVDFEMERFEVLGIPFSLQLWDTAGQERFKCIASTYYRGAQAIIIVFNLNDVASLEHTKQWLADALKENDPSSVLLFLVGSKKDLSTPAQYALMEKDALQVAQEMKAEYWAVSSLTGENVREFFFRVAALTFEANVLAELEKSGARRIGDVVRINSDDSNLYLTASKKKPTCCP
notes: Rab34 small GTPase, endogenous in human cell lines; source: endogenous, HeLa lysate; endogenous, lysates of UOK257, UOK257-2, UOK257-FLCN and UOK257-FLCNΔDENN cells
